Experimental data as given in the supplement of paper PMC10032668.
± gives the standard deviation of the averaged measurements. The list shows a part of the results. The list holds hits alone, and they repeat only in part.

Sequences of proteins named here, by UniProt entry; tags and fusion partners are left off.
KHDRBS1, Q07666, UniProt Q07666, whole entry: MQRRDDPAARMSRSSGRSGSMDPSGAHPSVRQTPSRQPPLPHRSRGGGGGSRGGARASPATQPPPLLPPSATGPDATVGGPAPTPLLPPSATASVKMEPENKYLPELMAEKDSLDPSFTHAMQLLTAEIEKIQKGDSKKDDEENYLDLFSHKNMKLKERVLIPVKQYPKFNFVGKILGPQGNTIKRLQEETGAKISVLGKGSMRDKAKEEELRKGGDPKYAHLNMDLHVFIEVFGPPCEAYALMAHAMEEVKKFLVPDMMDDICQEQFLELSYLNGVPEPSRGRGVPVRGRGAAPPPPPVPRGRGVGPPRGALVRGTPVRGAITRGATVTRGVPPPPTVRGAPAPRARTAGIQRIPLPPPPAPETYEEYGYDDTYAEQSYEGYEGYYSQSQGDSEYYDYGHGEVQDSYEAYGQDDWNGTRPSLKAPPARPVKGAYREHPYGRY
LRPAP1, P30533, UniProt P30533, whole entry: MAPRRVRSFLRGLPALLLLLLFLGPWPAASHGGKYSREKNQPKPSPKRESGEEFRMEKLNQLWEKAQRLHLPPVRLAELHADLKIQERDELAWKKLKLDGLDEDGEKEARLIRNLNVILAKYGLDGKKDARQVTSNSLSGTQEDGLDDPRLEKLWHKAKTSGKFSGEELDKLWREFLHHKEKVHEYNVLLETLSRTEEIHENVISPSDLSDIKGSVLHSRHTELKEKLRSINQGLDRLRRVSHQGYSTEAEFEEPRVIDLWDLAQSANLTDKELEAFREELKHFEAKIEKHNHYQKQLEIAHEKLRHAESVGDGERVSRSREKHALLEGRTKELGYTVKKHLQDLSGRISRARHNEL
MAPK1, P28482, UniProt P28482, whole entry: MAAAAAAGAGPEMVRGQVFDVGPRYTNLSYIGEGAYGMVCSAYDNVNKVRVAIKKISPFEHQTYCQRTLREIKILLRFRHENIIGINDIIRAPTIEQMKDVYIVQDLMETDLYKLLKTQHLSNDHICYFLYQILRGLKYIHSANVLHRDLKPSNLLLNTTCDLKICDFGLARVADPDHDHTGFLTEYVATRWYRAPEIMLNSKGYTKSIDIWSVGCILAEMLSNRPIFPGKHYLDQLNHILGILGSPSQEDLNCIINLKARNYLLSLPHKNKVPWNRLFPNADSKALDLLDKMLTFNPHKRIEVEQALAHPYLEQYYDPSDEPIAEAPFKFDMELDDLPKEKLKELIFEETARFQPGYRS
MORF4L1, Q9UBU8, UniProt Q9UBU8, whole entry: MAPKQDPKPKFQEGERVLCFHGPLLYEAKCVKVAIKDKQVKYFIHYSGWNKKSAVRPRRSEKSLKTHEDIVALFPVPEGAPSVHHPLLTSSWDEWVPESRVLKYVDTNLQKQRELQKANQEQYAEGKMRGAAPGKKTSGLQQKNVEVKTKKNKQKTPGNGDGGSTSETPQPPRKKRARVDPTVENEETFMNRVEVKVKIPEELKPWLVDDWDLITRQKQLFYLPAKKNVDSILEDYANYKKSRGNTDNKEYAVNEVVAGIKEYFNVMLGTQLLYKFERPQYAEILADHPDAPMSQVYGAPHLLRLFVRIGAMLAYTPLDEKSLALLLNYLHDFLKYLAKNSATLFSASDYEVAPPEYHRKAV
MORF4L2, Q15014, UniProt Q15014, whole entry: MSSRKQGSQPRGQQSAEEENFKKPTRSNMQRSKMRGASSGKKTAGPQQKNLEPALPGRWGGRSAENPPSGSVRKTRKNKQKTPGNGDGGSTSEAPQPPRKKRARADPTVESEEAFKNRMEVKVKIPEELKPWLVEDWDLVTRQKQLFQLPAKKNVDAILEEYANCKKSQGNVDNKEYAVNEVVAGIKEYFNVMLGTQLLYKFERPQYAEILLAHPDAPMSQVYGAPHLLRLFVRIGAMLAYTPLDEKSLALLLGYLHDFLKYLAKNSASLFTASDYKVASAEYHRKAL
MPG, P29372, UniProt P29372, whole entry: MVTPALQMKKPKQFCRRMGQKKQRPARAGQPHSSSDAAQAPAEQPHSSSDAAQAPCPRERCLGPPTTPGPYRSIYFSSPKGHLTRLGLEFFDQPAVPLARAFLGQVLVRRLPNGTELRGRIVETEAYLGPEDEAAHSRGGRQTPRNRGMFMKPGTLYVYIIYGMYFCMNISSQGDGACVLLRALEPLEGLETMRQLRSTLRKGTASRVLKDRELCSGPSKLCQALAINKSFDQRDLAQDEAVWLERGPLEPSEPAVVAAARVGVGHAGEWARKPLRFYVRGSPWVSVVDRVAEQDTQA
NUTF2, P61970, UniProt P61970, whole entry: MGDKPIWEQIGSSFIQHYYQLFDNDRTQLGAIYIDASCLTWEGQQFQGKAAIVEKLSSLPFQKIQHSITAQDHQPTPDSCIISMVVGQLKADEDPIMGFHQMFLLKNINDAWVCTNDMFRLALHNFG

Tests used:
Test in all cases: PRISMA enrichment of interactor (LFQ) in peptide spot vs all other peptide spots (log2 fold change); higher = stronger / more specific binding of the interactor to the peptide
FAM168A, Q92567 = molecular target: FAM168A, Q92567
Method: (§1)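 PRISMA: 221 full-length sORF-encoded peptides (3-15 aa), plus SOS1/GLUT1 control peptides, were spot-synthesized on cellulose membranes in triplicate. Membranes were incubated with HEK293T lysate, and bound proteins were identified by LC-MS/MS with LFQ. Enrichment is the log2 fold change versus all other peptide spots; only significant interactors are listed (cutoff c=6, x0=2.8).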

FAM32A, Q9Y421 = molecular target: FAM32A, Q9Y421
Method: as §1

FAM50A, Q14320 = molecular target: FAM50A, Q14320
Method: as §1

FAM91A1, Q658Y4 = molecular target: FAM91A1, Q658Y4
Method: as §1

FAM98A, Q8NCA5 = molecular target: FAM98A, Q8NCA5
Method: as §1

FHL1, Q13642 = molecular target: FHL1, Q13642
Method: as §1

FKBP2, P26885 = molecular target: FKBP2, P26885
Method: as §1

FUBP1, Q96AE4 = molecular target: FUBP1, Q96AE4
Method: as §1

FUBP3, Q96I24 = molecular target: FUBP3, Q96I24
Method: as §1

FUS, P35637 = molecular target: FUS, P35637
Method: as §1

G3BP2, Q9UN86 = molecular target: G3BP2, Q9UN86
Method: as §1

GABARAPL2, P60520 = molecular target: GABARAPL2, P60520
Method: as §1

GSK3B, P49841 = molecular target: GSK3B, P49841
Method: as §1

GTPBP1, O00178 = molecular target: GTPBP1, O00178
Method: as §1

HNRNPA0, Q13151 = molecular target: HNRNPA0, Q13151
Method: as §1

HNRNPA1, P09651 = molecular target: HNRNPA1, P09651
Method: as §1

HNRNPA2B1, P22626 = molecular target: HNRNPA2B1, P22626
Method: as §1

HNRNPA3, P51991 = molecular target: HNRNPA3, P51991
Method: as §1

HOMER1, Q86YM7 = molecular target: HOMER1, Q86YM7
Method: as §1

IBA57, Q5T440 = molecular target: IBA57, Q5T440
Method: as §1

ISCU, Q9H1K1 = molecular target: ISCU, Q9H1K1
Method: as §1

KHDRBS1, Q07666 = molecular target: KHDRBS1, Q07666
Method: as §1

KHSRP, Q92945 = molecular target: KHSRP, Q92945
Method: as §1

LRPAP1, P30533 = molecular target: LRPAP1, P30533
Method: as §1

LSM14A, Q8ND56 = molecular target: LSM14A, Q8ND56
Method: as §1

LSM14B, Q9BX40 = molecular target: LSM14B, Q9BX40
Method: as §1

MACF1 = molecular target: MACF1
Method: as §1

MAP7D1, Q3KQU3 = molecular target: MAP7D1, Q3KQU3
Method: as §1

MAPK1, P28482 = molecular target: MAPK1, P28482
Method: as §1

MAPK1IP1L, Q8NDC0 = molecular target: MAPK1IP1L, Q8NDC0
Method: as §1

MAZ, P56270 = molecular target: MAZ, P56270
Method: as §1

MBNL1, Q9NR56 = molecular target: MBNL1, Q9NR56
Method: as §1

MCM3, P25205 = molecular target: MCM3, P25205
Method: as §1

MCM5, P33992 = molecular target: MCM5, P33992
Method: as §1

METTL26, Q96S19 = molecular target: METTL26, Q96S19
Method: as §1

MMACHC, Q9Y4U1 = molecular target: MMACHC, Q9Y4U1
Method: as §1

MORF4L1, Q9UBU8 = molecular target: MORF4L1, Q9UBU8
Method: as §1

MORF4L2, Q15014 = molecular target: MORF4L2, Q15014
Method: as §1

MPG, P29372 = molecular target: MPG, P29372
Method: as §1

MPP1, Q00013 = molecular target: MPP1, Q00013
Method: as §1

MRRF, Q96E11 = molecular target: MRRF, Q96E11
Method: as §1

NMD3, Q96D46 = molecular target: NMD3, Q96D46
Method: as §1

NME4, O00746 = molecular target: NME4, O00746
Method: as §1

[1] = substrate: NONO, Q15233
Method: as §1

[2] = substrate: NOSIP, Q9Y314
Method: as §1

NTHL1, P78549 = molecular target: NTHL1, P78549
Method: as §1

NUDT16L1, Q9BRJ7 = molecular target: NUDT16L1, Q9BRJ7
Method: as §1

NUFIP2, Q7Z417 = molecular target: NUFIP2, Q7Z417
Method: as §1

NUSAP1, Q9BXS6 = molecular target: NUSAP1, Q9BXS6
Method: as §1

NUTF2, P61970 = molecular target: NUTF2, P61970
Method: as §1

NXF1, Q9UBU9 = molecular target: NXF1, Q9UBU9
Method: as §1

PAK4, O96013 = molecular target: PAK4, O96013
Method: as §1

PCLAF, Q15004 = molecular target: PCLAF, Q15004
Method: as §1

MMFWTEF [SH3D19]
PRISMA enrichment of interactor (log2) (FAM168A, Q92567): 4.5 | PRISMA enrichment of interactor (log2) (FAM32A, Q9Y421): 4.27 | PRISMA enrichment of interactor (log2) (FAM50A, Q14320): 5.87 | PRISMA enrichment of interactor (log2) (FAM91A1, Q658Y4): 4.81 | PRISMA enrichment of interactor (log2) (FAM98A, Q8NCA5): 4.84 | PRISMA enrichment of interactor (log2) (FHL1, Q13642): 4.25 | PRISMA enrichment of interactor (log2) (FKBP2, P26885): 6.74 | PRISMA enrichment of interactor (log2) (FUBP1, Q96AE4): 6.93 | PRISMA enrichment of interactor (log2) (FUBP3, Q96I24): 6.44 | PRISMA enrichment of interactor (log2) (FUS, P35637): 5.45 | PRISMA enrichment of interactor (log2) (G3BP2, Q9UN86): 5.2 | PRISMA enrichment of interactor (log2) (GABARAPL2, P60520): 5.73 | PRISMA enrichment of interactor (log2) (GSK3B, P49841): 5.08 | PRISMA enrichment of interactor (log2) (GTPBP1, O00178): 6.11 | PRISMA enrichment of interactor (log2) (HNRNPA0, Q13151): 5.74 | PRISMA enrichment of interactor (log2) (HNRNPA1, P09651): 5.28 | PRISMA enrichment of interactor (log2) (HNRNPA2B1, P22626): 4.1 | PRISMA enrichment of interactor (log2) (HNRNPA3, P51991): 4.94 | PRISMA enrichment of interactor (log2) (HOMER1, Q86YM7): 4.4 | PRISMA enrichment of interactor (log2) (IBA57, Q5T440): 6.38 | PRISMA enrichment of interactor (log2) (ISCU, Q9H1K1): 6.08 | PRISMA enrichment of interactor (log2) (KHDRBS1, Q07666): 5.67 | PRISMA enrichment of interactor (log2) (KHSRP, Q92945): 4.77 | PRISMA enrichment of interactor (log2) (LRPAP1, P30533): 5.12 | PRISMA enrichment of interactor (log2) (LSM14A, Q8ND56): 6.37 | PRISMA enrichment of interactor (log2) (LSM14B, Q9BX40): 5.54 | PRISMA enrichment of interactor (log2) (MACF1): 5.03 | PRISMA enrichment of interactor (log2) (MAP7D1, Q3KQU3): 3.9 | PRISMA enrichment of interactor (log2) (MAPK1, P28482): 4.69 | PRISMA enrichment of interactor (log2) (MAPK1IP1L, Q8NDC0): 4.39 | PRISMA enrichment of interactor (log2) (MAZ, P56270): 5.65 ± 1.8 | PRISMA enrichment of interactor (log2) (MBNL1, Q9NR56): 6.46 | PRISMA enrichment of interactor (log2) (MCM3, P25205): 5.07 | PRISMA enrichment of interactor (log2) (MCM5, P33992): 5.28 | PRISMA enrichment of interactor (log2) (METTL26, Q96S19): 4.36 | PRISMA enrichment of interactor (log2) (MMACHC, Q9Y4U1): 3.9 | PRISMA enrichment of interactor (log2) (MORF4L1, Q9UBU8): 5.24 | PRISMA enrichment of interactor (log2) (MORF4L2, Q15014): 7.33 | PRISMA enrichment of interactor (log2) (MPG, P29372): 6.83 | PRISMA enrichment of interactor (log2) (MPP1, Q00013): 4.05 | PRISMA enrichment of interactor (log2) (MRRF, Q96E11): 5.7 | PRISMA enrichment of interactor (log2) (NMD3, Q96D46): 5.2 | PRISMA enrichment of interactor (log2) (NME4, O00746): 5.57 | PRISMA enrichment of interactor (log2) [1]: 5.71 | PRISMA enrichment of interactor (log2) [2]: 6.99 | PRISMA enrichment of interactor (log2) (NTHL1, P78549): 5.31 | PRISMA enrichment of interactor (log2) (NUDT16L1, Q9BRJ7): 5.58 | PRISMA enrichment of interactor (log2) (NUFIP2, Q7Z417): 4.64 | PRISMA enrichment of interactor (log2) (NUSAP1, Q9BXS6): 5.5 | PRISMA enrichment of interactor (log2) (NUTF2, P61970): 5.01 | PRISMA enrichment of interactor (log2) (NXF1, Q9UBU9): 7.24 | PRISMA enrichment of interactor (log2) (PAK4, O96013): 4.38 | PRISMA enrichment of interactor (log2) (PCLAF, Q15004): 4.82
